Reference: the supplement of paper PMC7666118
The list shows a part of the results.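 Rule for the calls: active = dose-dependent thermal stabilisation significant by F-test of dose-response against flat model at 10% FDR; inactive = not significant.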

Protein sequences, listed by entry. Tags and fused reporters are not part of them. Lines headed by an entry give the natural chain unless they say otherwise; changes in a name come on top.
UniProt Q01196, whole entry: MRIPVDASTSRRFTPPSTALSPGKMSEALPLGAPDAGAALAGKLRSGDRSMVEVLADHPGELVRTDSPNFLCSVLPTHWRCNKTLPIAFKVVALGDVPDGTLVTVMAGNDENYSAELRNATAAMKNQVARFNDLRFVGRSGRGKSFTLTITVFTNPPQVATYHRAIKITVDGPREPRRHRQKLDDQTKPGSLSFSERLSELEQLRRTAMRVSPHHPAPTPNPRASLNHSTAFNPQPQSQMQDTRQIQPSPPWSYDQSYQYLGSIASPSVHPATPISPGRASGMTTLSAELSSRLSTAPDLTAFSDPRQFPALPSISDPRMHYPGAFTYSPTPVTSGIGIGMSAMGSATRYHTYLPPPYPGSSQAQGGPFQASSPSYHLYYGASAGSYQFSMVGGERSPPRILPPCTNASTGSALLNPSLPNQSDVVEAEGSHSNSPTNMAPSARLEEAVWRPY
UniProt Q9BVS4: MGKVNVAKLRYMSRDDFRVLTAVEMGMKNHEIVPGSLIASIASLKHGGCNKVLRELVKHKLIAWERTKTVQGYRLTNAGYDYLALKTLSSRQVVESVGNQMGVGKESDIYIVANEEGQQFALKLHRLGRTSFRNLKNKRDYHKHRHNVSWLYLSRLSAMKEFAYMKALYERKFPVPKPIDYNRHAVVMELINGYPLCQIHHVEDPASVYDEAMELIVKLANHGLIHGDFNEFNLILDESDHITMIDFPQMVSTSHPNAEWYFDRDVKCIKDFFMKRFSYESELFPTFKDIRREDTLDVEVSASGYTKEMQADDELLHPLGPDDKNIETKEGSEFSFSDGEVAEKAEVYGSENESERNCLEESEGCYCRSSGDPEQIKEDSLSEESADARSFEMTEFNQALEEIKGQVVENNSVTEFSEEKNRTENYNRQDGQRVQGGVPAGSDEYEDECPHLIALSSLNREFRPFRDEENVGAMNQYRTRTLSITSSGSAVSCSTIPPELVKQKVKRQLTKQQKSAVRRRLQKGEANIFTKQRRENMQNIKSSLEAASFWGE
UniProt Q9Y6Y8: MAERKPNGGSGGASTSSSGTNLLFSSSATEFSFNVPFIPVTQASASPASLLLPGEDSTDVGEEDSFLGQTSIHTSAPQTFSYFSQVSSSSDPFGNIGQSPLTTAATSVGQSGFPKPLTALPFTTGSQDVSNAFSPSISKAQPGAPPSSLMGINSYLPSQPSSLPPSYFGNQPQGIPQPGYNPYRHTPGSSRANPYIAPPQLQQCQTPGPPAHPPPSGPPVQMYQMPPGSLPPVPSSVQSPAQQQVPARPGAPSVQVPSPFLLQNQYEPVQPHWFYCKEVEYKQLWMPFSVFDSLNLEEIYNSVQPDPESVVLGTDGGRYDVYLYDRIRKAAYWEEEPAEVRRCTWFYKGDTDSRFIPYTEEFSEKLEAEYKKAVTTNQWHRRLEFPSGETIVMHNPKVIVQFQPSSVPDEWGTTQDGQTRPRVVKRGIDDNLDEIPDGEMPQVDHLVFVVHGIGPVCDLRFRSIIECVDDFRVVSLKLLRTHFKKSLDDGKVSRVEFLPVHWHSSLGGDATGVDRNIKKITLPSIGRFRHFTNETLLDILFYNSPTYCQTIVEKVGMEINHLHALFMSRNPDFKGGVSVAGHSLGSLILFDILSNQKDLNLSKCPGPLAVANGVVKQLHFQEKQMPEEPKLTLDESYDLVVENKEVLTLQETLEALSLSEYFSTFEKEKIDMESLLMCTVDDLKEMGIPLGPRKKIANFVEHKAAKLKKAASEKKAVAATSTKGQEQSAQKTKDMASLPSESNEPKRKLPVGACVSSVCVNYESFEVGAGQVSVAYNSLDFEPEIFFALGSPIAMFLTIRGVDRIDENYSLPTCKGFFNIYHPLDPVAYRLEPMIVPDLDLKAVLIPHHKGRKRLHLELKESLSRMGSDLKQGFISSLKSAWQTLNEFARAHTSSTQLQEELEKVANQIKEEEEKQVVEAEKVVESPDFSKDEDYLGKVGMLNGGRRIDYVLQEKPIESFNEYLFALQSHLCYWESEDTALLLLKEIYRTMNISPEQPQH
UniProt Q9H4A4: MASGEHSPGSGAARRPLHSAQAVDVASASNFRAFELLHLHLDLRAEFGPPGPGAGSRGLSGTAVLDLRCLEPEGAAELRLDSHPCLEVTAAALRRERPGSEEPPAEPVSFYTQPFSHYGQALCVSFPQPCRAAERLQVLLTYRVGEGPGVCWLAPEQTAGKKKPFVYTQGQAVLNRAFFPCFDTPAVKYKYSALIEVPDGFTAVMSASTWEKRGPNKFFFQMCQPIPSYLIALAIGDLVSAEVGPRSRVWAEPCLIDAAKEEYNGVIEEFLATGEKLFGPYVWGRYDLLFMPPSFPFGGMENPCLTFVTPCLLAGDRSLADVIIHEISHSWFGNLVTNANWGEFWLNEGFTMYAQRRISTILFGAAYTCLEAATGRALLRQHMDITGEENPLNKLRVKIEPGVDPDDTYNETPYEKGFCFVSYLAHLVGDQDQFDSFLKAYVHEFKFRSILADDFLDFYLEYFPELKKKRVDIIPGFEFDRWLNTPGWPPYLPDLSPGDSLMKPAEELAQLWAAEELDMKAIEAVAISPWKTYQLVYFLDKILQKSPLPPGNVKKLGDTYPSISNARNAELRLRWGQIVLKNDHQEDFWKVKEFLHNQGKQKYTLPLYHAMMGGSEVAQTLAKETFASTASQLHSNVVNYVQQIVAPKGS
UniProt Q96E14: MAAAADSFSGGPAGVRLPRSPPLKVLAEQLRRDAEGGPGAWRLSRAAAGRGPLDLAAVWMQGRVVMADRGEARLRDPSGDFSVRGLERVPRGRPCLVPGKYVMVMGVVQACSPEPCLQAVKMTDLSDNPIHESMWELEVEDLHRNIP
UniProt Q96ES7: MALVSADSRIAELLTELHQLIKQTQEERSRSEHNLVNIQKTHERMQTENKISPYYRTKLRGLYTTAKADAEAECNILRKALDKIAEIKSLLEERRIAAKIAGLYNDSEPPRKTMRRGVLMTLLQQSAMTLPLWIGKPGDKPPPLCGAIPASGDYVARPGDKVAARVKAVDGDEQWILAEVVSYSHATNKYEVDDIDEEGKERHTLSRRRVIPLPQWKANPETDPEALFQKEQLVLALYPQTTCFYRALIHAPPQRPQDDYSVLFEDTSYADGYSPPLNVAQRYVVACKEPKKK
UniProt O75396: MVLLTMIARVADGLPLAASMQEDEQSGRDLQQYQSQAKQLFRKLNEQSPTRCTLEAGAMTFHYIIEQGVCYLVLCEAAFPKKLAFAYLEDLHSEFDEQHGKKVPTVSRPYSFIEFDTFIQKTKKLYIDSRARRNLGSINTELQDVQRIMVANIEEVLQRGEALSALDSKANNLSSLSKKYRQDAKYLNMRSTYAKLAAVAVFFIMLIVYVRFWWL
UniProt Q5VT52: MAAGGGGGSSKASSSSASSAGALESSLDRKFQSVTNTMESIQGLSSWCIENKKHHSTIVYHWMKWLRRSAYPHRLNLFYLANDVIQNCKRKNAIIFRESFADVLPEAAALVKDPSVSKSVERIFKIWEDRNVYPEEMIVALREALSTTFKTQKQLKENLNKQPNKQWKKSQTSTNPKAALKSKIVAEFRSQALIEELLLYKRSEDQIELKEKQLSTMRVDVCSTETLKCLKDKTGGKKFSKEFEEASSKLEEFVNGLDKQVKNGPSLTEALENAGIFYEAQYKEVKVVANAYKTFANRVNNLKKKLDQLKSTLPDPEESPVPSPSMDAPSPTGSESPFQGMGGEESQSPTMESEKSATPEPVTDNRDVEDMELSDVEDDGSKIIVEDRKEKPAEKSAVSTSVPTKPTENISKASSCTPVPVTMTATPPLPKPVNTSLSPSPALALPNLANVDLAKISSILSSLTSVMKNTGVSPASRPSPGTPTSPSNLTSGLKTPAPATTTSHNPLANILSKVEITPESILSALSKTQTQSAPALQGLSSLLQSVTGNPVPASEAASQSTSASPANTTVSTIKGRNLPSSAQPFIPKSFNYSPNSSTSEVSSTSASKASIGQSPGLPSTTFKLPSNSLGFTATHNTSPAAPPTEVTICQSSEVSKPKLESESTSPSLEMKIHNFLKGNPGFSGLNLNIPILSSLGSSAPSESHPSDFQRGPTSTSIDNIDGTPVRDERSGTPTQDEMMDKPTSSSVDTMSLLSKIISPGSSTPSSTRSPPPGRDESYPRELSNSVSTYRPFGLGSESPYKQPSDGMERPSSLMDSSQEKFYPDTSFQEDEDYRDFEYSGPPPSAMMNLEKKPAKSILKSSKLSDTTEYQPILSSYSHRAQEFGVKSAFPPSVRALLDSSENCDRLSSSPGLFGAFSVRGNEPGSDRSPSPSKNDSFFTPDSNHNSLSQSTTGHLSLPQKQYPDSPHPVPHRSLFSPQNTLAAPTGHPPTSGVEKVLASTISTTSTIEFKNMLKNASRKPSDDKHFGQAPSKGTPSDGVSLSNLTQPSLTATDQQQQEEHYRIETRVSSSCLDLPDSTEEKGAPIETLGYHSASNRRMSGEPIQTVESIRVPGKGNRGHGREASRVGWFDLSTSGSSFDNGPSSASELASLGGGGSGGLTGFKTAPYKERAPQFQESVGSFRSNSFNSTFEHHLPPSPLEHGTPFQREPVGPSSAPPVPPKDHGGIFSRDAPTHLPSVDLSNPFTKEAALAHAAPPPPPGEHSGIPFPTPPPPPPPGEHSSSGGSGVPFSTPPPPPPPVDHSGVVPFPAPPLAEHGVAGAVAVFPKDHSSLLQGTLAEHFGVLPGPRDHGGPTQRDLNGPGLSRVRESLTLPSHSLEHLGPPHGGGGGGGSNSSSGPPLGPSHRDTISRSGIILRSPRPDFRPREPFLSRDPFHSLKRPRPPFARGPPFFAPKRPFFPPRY
UniProt Q9UBE0: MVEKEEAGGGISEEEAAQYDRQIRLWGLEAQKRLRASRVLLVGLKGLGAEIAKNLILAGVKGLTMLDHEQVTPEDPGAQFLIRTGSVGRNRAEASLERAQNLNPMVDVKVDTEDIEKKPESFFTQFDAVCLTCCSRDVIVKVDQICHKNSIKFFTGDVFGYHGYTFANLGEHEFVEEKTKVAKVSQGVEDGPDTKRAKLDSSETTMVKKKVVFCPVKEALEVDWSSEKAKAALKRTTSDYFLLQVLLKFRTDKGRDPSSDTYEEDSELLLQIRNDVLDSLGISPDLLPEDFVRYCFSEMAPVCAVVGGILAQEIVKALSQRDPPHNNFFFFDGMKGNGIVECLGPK
UniProt Q15428: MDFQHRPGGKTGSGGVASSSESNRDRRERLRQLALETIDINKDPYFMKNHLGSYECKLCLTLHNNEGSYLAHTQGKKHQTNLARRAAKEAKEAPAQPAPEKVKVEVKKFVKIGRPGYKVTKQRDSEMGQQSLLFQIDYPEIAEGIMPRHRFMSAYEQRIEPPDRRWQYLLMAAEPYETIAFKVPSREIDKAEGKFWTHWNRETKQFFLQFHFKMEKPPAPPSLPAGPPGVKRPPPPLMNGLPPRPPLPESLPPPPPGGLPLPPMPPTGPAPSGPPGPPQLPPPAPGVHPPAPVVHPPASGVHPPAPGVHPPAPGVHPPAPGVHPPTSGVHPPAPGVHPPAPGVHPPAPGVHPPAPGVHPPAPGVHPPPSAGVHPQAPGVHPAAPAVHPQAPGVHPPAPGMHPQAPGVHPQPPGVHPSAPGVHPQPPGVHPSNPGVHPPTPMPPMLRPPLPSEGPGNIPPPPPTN
UniProt Q96LD8: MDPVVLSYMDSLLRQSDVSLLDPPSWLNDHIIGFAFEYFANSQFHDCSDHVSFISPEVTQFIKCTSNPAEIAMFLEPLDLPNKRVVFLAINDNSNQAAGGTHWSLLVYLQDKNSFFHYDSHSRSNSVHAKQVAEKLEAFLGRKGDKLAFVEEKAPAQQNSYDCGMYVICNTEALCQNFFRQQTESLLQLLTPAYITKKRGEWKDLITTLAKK
UniProt Q5TBB1: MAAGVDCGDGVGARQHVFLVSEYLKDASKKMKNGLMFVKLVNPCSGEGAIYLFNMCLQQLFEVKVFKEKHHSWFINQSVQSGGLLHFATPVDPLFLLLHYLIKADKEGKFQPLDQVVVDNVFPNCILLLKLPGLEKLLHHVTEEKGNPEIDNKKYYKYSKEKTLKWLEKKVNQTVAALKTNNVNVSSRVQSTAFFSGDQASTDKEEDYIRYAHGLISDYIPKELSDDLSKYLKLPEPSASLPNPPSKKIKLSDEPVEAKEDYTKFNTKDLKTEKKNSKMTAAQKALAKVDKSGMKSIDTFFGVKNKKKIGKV
UniProt O43148, whole entry: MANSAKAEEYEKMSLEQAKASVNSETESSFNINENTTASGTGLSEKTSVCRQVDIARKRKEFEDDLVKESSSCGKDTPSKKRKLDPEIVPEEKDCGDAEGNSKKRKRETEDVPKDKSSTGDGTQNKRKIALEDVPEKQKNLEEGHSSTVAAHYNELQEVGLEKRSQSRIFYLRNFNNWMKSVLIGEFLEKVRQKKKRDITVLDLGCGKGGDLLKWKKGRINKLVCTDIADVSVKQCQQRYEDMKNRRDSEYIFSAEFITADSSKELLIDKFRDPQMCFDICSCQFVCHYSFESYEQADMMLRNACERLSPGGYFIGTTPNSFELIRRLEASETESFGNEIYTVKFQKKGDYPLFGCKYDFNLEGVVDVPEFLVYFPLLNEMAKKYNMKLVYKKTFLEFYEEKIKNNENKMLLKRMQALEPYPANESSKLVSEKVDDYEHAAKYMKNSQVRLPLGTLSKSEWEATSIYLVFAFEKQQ

The targets below were run with Nc1nc2c(ncn2[C@@H]2O[C@H](COP(=O)(O)OP(=O)(O)OP(=O)(O)O)[C@@H](O)[C@H]2O)c(=O)[nH]1 (assay: dose-dependent thermal stabilisation call (2D-TPP, DLPTP, 10% FDR) (binary (1 = stabilised)); higher = stabilised by the compound). Conditions: system: Jurkat gel-filtered lysate; concentration range 1-500 µM.
Procedure: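 2D thermal proteome profiling in gel-filtered Jurkat E6.1 lysate (2 mg/ml) treated with NaGTP (0, 1, 10, 100, 500 uM) for 10 min at room temperature, then heated 3 min at one of 12 temperatures (42-63.9 C). Soluble protein was quantified by TMT10 MS. The value is the DLPTP call of the paper: dose-dependent thermal stabilisation over all temperatures at 10% FDR (F-test of a dose-response against a flat model); one experiment, one call per tested protein.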

Target	dose-dependent thermal stabilisation call
RUNX1 (UniProt Q01196)	inactive: 0
SEC31A (UniProt O94979)	inactive: 0
RIOK2 (UniProt Q9BVS4)	inactive: 0
SEC23IP (UniProt Q9Y6Y8)	active: 1
RNPEP (UniProt Q9H4A4)	inactive: 0
RPS25 (UniProt P62851)	inactive: 0
RMI2 (UniProt Q96E14)	inactive: 0
RNF187 (UniProt Q5TA31)	inactive: 0
SCYL3 (UniProt Q8IZE3)	inactive: 0
SGF29 (UniProt Q96ES7)	inactive: 0
SEC22B (UniProt O75396)	inactive: 0
SCAF11 (UniProt Q99590)	inactive: 0
RPRD2 (UniProt Q5VT52)	inactive: 0
RPAP1 (UniProt Q9BWH6)	inactive: 0
RTN4 (UniProt Q9NQC3)	inactive: 0
SAE1 (UniProt Q9UBE0)	inactive: 0
RPL3 (UniProt P39023)	inactive: 0
RFK (UniProt Q969G6)	active: 1
RPE (UniProt Q96AT9)	inactive: 0
SF3A2 (UniProt Q15428)	inactive: 0

Single values from the list:
RUNX1 (UniProt Q01196) | dose-dependent thermal stabilisation call: inactive: 0
RNF187 (UniProt Q5TA31) | dose-dependent thermal stabilisation call: inactive: 0
SGF29 (UniProt Q96ES7) | dose-dependent thermal stabilisation call: inactive: 0

More results.

Target	dose-dependent thermal stabilisation call
SART1 (UniProt O43290)	inactive: 0
SAAL1 (UniProt Q96ER3)	inactive: 0
RUFY1 (UniProt Q96T51)	inactive: 0
SECISBP2 (UniProt Q96T21)	inactive: 0
RPS8 (UniProt P62241)	inactive: 0
SCAF8 (UniProt Q9UPN6)	inactive: 0
SENP8 (UniProt Q96LD8)	inactive: 0
RPS7 (UniProt P62081)	active: 1
SEC24D (UniProt O94855)	inactive: 0
RRAGB (UniProt Q5VZM2)	active: 1
RPS27A (UniProt P62979)	inactive: 0
RRAGD (UniProt Q9NQL2)	inactive: 0
RNASEH2B (UniProt Q5TBB1)	inactive: 0
RPA3 (UniProt P35244)	inactive: 0
RNPS1 (UniProt Q15287)	active: 1
SF3B3 (UniProt Q15393)	inactive: 0
RNMT (UniProt O43148)	inactive: 0
SF3B2 (UniProt Q13435)	active: 1
SEPTIN3 (UniProt Q9UH03)	active: 1
SAMSN1 (UniProt Q9NSI8)	inactive: 0
